Assay results: patent US20020160012A1 (priority 2000, published 2002)

Assay: peptide made by a vendor
Details: whole synthesis

## Ac-CDGAVQPDGGQPAVRNER-NH2
  purity (crude or final not stated): purity more or about 95%
